Measurements as given in publication PMC7199855, “GRAF2, WDR44, and MICAL1 mediate Rab8/10/11–dependent export of E-cadherin, MMP14, and CFTR ΔF508” (The Journal of Cell Biology, 2020).
Numbering of substitutions follows the chain as printed. Results are given in words; binding and its absence hold for the method and conditions named. In cells and extracts the contact can be indirect. Some results given as binding are weak or reduced against the parent protein; the word gives no strength. Tags and fused reporters may be left off the sequences shown.

Amino acid sequences for entries named in this document (tags omitted).
UniProt O95292: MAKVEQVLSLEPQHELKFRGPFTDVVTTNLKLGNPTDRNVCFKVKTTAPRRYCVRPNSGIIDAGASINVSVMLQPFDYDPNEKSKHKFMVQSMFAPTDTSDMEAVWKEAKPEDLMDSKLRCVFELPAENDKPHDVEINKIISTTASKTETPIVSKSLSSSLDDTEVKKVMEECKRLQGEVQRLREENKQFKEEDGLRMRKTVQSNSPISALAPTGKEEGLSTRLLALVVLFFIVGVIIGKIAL
UniProt P61007: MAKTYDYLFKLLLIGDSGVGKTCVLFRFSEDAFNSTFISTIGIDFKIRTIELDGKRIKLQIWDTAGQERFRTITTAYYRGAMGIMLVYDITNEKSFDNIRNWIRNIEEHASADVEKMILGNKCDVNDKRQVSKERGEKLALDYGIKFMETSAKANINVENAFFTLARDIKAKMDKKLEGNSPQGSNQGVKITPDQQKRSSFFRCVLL

Key:
GFP-WDR44 ΔFFAT (human) = molecular target: T1, GFP-WDR44 ΔFFAT (human) (UniProt Q5JSH3); test: co-IP; transfected 293T, IP with α-GFP and Protein G Sepharose; 20 mM Hepes pH 7.4, 150 mM NaCl, 2 mM EDTA, 1% IGEPAL CA-630; Western blot
T1 sequence: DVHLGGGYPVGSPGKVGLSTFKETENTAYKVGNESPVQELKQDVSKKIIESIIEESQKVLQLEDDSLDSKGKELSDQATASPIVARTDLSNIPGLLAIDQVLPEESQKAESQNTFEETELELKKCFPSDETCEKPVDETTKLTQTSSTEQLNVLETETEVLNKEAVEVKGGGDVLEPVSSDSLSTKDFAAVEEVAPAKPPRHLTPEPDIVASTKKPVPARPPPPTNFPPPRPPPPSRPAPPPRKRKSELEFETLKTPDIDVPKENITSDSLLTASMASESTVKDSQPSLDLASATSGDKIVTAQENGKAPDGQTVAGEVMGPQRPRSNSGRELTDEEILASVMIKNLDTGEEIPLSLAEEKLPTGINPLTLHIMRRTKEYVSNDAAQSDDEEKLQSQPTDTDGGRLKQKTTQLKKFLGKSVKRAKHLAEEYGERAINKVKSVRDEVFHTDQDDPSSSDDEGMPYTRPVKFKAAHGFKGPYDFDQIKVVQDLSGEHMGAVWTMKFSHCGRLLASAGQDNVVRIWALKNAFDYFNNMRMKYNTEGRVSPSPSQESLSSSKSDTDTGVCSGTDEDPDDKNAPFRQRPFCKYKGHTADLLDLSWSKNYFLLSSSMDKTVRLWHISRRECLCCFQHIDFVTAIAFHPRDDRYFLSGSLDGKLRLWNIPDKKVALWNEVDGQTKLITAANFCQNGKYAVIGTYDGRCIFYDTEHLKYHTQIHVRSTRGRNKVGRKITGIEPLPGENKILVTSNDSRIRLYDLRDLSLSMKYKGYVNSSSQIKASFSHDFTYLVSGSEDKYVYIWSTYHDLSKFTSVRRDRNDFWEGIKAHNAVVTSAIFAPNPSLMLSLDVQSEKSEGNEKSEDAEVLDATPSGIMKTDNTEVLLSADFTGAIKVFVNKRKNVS

GFP-WDR44 (human) = molecular target: T2, GFP-WDR44 (human) (UniProt Q5JSH3); test: as above
T2 sequence: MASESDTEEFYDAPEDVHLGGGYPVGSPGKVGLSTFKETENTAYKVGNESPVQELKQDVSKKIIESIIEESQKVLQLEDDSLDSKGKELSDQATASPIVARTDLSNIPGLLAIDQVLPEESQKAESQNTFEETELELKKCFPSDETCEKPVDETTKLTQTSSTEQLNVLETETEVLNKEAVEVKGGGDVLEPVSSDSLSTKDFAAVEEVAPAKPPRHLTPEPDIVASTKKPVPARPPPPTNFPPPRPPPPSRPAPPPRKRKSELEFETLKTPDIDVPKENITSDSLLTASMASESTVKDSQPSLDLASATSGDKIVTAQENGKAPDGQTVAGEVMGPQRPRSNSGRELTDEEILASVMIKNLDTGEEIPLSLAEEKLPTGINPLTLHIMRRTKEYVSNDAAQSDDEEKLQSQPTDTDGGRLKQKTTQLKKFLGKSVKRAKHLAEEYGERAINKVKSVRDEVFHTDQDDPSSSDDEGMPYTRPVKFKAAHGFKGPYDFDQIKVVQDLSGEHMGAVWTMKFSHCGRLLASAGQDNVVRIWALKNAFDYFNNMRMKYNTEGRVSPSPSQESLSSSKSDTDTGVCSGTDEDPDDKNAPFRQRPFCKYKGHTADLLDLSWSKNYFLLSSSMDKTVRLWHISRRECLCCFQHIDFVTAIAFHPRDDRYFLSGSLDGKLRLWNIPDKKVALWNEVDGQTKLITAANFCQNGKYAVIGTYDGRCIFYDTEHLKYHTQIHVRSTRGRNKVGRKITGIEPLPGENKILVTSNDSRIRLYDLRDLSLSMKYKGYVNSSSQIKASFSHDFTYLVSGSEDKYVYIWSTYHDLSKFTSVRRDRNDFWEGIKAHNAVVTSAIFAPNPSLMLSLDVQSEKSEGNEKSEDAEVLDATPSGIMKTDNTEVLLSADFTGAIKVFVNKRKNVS

myc-MICAL1^tail (human) = molecular target: T3, myc-MICAL1^tail (human) (UniProt Q8TDZ2); test: co-IP; transfected 293T, IP with α-myc–coated magnetic beads; 20 mM Hepes pH 7.4, 150 mM NaCl, 2 mM EDTA, 1% IGEPAL CA-630; Western blot
T3 sequence: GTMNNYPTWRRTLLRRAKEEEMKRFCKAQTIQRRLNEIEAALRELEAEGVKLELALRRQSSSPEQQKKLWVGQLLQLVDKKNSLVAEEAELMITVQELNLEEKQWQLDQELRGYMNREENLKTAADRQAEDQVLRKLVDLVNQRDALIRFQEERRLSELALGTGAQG

myc-MICAL1^Pro (human) = molecular target: T4, myc-MICAL1^Pro (human) (UniProt Q8TDZ2); test: as above
T4 sequence: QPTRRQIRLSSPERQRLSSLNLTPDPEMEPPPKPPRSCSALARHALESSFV

myc-MICAL1 (human) = molecular target: T5, myc-MICAL1 (human) (UniProt Q8TDZ2); test: co-IP; transfected 293T, IP with α-myc antibody and Protein G Sepharose; 20 mM Hepes pH 7.4, 150 mM NaCl, 2 mM EDTA, 1% IGEPAL CA-630; Western blot
T5 sequence: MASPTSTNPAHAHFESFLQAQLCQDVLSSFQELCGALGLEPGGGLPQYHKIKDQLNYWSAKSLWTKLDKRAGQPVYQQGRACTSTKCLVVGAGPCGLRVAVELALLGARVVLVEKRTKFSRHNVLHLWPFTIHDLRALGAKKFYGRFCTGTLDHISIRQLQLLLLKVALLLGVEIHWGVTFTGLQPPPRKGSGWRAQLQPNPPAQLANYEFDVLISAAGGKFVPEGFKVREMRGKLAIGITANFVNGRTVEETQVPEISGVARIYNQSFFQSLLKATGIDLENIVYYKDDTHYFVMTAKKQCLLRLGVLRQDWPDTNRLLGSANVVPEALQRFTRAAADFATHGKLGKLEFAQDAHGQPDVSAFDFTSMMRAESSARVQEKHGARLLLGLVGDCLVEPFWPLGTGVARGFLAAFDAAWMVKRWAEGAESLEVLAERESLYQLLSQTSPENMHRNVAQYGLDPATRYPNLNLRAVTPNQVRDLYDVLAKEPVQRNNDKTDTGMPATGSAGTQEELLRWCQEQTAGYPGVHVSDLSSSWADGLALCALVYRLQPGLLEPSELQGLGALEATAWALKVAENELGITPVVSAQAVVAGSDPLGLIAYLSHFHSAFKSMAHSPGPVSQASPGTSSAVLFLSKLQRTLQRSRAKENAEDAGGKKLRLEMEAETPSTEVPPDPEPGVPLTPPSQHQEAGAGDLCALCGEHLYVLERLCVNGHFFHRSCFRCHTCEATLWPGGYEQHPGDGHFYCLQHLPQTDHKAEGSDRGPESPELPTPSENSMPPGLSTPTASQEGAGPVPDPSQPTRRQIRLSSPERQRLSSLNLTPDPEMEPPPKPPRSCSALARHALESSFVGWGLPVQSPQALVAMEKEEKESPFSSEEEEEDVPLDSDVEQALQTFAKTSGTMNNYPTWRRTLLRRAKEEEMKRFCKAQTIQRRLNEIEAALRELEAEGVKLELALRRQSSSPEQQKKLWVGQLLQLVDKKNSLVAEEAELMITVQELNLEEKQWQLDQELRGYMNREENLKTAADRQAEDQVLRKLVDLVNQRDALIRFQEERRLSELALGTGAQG

myc–MICAL1 G3W (human) = molecular target: T6, myc–MICAL1 G3W (human) (UniProt Q8TDZ2); test: as above
T6 sequence: T5 sequence with G91W, G93W, G96W

Row | binding (GFP-WDR44 ΔFFAT (human)) | binding (GFP-WDR44 (human)) | binding (myc-MICAL1^tail (human)) | binding (myc-MICAL1^Pro (human)) | binding (myc-MICAL1 (human)) | binding (myc–MICAL1 G3W (human)) | Substance
1 | no binding | binds | – | – | – | – | myc-VAPB (from UniProt O95292 1-243)
2 | – | – | binds | no binding | binds | binds | GFP-Rab8a (from UniProt P61007 1-207)
